According to PMC6146689:

Target: T1, FLAG-AP-1-2-beta (β-adaptin) (Drosophila melanogaster) (UniProt Q24253)
T1 sequence: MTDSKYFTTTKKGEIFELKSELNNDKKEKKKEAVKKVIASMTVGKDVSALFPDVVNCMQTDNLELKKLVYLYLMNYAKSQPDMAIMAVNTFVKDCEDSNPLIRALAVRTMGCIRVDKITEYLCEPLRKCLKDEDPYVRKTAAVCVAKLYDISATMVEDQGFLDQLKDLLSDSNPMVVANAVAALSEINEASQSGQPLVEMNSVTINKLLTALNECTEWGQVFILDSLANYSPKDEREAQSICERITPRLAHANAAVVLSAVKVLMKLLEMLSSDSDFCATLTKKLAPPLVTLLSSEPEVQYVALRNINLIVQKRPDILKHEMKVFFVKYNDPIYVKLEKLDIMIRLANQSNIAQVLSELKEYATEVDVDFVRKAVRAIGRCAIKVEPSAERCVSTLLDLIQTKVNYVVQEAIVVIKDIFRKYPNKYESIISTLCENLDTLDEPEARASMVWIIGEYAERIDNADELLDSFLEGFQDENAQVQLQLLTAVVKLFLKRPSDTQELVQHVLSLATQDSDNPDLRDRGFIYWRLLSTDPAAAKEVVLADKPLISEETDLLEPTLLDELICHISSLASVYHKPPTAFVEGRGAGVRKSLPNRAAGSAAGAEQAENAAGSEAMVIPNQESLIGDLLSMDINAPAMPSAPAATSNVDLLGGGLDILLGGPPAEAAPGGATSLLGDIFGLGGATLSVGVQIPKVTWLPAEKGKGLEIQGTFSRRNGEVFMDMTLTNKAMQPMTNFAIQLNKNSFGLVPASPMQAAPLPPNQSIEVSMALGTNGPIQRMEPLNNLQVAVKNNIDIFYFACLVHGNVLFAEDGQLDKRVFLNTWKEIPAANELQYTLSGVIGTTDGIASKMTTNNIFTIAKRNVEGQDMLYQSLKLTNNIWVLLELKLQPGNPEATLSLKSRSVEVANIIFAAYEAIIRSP
Test: co-IP; S2* cells cotransfected with pAGW-Bub1 and pAFW-AP-1-2-beta, 72 h, then with or without DCV (MOI 100, 1 h, 28°C); anti-FLAG immunoprecipitation, anti-GFP blot; also after the Bub1 kinase inhibitor 2OH-BNPP1 (Fig. S6B)

binding: binds
Substance: GFP-Bub1 fusion protein (Drosophila budding uninhibited by benzimidazoles 1) (from UniProt Q7K0Y3)

These are yes or no findings as the source states them, for the method shown. In cells and extracts the contact can be indirect. A result given as binding can be weak or reduced; the word gives no strength. Where a sequence is shown, tags or fusion partners need not be part of it.
